This passage reports binding results from paper PMC6250677.

Protein sequences, listed by entry. Tags and fused reporters are not part of them.
UniProt P38532: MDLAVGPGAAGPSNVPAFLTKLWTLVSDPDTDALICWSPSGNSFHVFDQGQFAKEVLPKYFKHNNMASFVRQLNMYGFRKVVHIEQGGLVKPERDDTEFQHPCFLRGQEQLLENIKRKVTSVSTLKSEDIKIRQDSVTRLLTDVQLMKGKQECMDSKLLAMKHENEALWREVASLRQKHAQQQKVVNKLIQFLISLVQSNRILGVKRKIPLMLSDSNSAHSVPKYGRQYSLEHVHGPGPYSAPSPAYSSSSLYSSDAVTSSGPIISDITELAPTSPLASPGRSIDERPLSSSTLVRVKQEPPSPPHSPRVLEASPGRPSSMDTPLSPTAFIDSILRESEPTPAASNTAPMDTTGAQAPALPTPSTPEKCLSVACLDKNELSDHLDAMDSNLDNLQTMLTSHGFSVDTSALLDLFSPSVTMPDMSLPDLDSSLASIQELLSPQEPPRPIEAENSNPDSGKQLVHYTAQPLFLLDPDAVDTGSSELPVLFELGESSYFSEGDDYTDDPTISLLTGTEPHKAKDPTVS
UniProt P02340: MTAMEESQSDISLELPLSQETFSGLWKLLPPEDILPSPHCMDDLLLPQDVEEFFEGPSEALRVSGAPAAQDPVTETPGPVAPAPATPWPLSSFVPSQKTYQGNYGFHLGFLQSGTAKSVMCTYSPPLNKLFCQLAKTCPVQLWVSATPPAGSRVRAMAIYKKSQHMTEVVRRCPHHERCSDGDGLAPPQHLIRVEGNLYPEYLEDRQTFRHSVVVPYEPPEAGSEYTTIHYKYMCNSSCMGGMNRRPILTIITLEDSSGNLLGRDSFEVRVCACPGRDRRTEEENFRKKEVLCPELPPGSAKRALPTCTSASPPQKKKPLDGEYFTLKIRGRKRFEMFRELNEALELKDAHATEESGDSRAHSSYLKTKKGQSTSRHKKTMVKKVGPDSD
UniProt Q9WTL8: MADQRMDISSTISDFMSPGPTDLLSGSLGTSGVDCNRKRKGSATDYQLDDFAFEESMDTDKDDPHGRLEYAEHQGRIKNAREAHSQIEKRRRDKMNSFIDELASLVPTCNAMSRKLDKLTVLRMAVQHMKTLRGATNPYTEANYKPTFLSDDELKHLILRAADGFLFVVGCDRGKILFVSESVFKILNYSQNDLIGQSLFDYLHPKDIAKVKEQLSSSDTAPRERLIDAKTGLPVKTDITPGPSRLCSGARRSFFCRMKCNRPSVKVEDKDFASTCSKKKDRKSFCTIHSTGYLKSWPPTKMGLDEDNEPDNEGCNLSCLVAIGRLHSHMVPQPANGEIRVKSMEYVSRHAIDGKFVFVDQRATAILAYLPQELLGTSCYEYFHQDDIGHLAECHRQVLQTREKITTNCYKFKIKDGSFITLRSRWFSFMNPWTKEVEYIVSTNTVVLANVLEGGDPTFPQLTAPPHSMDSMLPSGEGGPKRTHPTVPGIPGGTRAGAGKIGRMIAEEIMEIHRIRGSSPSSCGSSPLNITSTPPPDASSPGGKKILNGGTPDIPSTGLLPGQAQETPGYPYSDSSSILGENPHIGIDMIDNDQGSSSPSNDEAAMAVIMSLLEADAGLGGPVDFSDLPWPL

No constants are given. Whether binding was seen depends on the method and setting. Binding seen in cells or lysates may run through a third protein. Some results given as binding are weak or reduced against the parent protein; the word gives no strength.

In test [1] the target is heat-shock factor-1 (HSF1), endogenous in NIH3T3 cells (mouse (endogenous in NIH3T3)) (UniProt P38532). Description: co-IP; endogenous proteins in NIH3T3 lysate (NP-40 lysis buffer: 10 mM Tris-HCl pH 7.4, 150 mM NaCl, 5 mM EDTA, 50 mM NaF, 0.5% NP-40); cells unirradiated or UV irradiated (254 nm, 10 J m^-2), sampled at 2 or 4 h; IP with anti-HSF1, anti-p53 or anti-BMAL1 antibody and protein G-sepharose, 6 h at 4 °C; immunoblot. On the technique in general: In western blotting, separated proteins are transferred to a membrane and probed.

Test [2] concerns the target ELucC-fused full-length mouse p53 (split-luciferase probe) (mouse) (UniProt P02340). Kind of test: split reporter; split emerald luciferase complementation in living NIH3T3 cells; UV irradiation 2, 5 and 10 J m^-2; real-time bioluminescence.
Test [3] shares this target. Description: split reporter; split-luciferase complementation in living U2OS cells after UV irradiation; real-time bioluminescence.
In test [4] the target is tumor suppressor p53, endogenous in NIH3T3 cells (mouse (endogenous in NIH3T3)) (UniProt P02340). Kind of test: co-IP; endogenous proteins in NIH3T3 lysate (NP-40 lysis buffer: 10 mM Tris-HCl pH 7.4, 150 mM NaCl, 5 mM EDTA, 50 mM NaF, 0.5% NP-40); cells unirradiated or UV irradiated (254 nm, 10 J m^-2), sampled at 2 or 4 h; IP with anti-HSF1, anti-p53 or anti-BMAL1 antibody and protein G-sepharose, 6 h at 4 °C; immunoblot.

In test [5] the target is brain and muscle ARNT-like protein-1 (BMAL1), endogenous in NIH3T3 cells (mouse (endogenous in NIH3T3)) (UniProt Q9WTL8). Described as above.
The target of test [6] is ELuc N-terminal fragment-fused mouse HSF1 (split-luciferase probe) (mouse) (UniProt P38532). Description: split reporter; split-luciferase complementation in living U2OS cells after UV irradiation; real-time bioluminescence.

For the substance “brain and muscle ARNT-like protein-1 (BMAL1), endogenous in NIH3T3 cells (from UniProt Q9WTL8 1-632)”, the binding result in test [1] was “binds”.

For “ELuc N-terminal fragment-fused mouse HSF1 (split-luciferase probe) (from UniProt P38532 1-525)”, the binding entry in test [2] and in test [3] was “binds” each time.

For the substance “tumor suppressor p53, endogenous in NIH3T3 cells (from UniProt P02340 1-390)”, in test [1], the binding entry is on record as “binds”. In the case of “heat-shock factor-1 (HSF1), endogenous in NIH3T3 cells (from UniProt P38532 1-525)”, the binding result in test [4] and in test [5] was “binds” each time. Take “BMAL1 split-luciferase probe (ectopic BMAL1 in U2OS cells) (from UniProt Q9WTL8 1-632)”: in test [6], the binding entry is reported as “binds”.
